These results are taken from the supplement of paper PMC12819154, “High-throughput peptide-centric local stability assay extends protein–ligand identification to membrane proteins, tissues and bacteria” (Nature Structural & Molecular Biology, 2025).

Sequences of proteins named here, by UniProt entry; tags and fusion partners are left off. A change or cut given only in a name is not applied to a line headed by its entry.
UniProt P77748: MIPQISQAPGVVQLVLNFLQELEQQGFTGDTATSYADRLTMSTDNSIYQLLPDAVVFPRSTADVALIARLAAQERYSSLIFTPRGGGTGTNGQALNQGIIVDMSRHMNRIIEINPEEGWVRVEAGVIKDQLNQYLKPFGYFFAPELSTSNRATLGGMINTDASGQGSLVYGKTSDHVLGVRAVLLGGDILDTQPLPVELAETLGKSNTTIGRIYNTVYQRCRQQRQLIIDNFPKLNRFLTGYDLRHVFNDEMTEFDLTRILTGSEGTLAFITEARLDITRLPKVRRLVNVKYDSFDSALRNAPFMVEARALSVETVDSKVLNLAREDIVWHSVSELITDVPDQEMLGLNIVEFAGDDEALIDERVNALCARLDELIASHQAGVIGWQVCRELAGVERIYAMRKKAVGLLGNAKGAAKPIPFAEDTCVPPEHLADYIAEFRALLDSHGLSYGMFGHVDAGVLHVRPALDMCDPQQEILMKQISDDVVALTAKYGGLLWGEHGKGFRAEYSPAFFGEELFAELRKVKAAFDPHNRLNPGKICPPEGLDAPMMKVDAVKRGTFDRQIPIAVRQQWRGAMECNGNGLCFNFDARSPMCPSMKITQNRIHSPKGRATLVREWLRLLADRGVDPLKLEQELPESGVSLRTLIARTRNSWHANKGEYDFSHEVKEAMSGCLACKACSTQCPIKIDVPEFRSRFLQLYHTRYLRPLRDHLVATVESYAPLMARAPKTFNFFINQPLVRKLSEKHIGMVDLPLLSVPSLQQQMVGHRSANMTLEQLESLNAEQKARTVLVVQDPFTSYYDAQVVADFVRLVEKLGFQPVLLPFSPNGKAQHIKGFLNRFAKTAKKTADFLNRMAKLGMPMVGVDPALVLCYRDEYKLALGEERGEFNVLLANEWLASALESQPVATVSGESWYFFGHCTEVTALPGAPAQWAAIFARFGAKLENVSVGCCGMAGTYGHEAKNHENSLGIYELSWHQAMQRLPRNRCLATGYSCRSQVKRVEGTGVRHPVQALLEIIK
UniProt P77791: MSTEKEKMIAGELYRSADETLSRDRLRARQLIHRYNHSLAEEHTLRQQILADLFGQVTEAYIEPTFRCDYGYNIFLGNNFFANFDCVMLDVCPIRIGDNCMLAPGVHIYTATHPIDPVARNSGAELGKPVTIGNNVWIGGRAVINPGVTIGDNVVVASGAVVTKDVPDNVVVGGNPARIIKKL
UniProt Q46809: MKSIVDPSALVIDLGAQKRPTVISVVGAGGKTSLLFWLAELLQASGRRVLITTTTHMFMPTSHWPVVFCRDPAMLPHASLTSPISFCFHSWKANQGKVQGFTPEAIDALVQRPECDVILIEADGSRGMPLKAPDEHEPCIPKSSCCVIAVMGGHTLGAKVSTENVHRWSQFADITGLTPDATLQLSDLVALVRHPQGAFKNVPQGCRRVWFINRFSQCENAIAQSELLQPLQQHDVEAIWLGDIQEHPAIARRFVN
UniProt Q46801: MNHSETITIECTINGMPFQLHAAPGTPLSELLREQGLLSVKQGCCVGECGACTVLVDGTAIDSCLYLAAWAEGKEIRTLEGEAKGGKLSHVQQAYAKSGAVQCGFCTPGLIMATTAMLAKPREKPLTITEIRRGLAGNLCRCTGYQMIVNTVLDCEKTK
UniProt Q46897: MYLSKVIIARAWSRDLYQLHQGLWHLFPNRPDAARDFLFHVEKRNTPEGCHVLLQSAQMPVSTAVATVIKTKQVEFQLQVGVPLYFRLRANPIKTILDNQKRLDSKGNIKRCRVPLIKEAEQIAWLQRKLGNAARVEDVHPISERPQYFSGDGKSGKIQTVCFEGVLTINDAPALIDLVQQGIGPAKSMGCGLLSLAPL
UniProt Q46807: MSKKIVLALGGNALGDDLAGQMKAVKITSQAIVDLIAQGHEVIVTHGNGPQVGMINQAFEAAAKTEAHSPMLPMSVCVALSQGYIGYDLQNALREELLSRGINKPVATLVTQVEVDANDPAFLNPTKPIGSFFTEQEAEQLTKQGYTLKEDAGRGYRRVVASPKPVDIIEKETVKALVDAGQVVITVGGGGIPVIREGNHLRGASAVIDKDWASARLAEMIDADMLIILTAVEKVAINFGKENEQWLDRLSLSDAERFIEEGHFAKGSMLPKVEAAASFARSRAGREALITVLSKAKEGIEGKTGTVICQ
UniProt Q46861: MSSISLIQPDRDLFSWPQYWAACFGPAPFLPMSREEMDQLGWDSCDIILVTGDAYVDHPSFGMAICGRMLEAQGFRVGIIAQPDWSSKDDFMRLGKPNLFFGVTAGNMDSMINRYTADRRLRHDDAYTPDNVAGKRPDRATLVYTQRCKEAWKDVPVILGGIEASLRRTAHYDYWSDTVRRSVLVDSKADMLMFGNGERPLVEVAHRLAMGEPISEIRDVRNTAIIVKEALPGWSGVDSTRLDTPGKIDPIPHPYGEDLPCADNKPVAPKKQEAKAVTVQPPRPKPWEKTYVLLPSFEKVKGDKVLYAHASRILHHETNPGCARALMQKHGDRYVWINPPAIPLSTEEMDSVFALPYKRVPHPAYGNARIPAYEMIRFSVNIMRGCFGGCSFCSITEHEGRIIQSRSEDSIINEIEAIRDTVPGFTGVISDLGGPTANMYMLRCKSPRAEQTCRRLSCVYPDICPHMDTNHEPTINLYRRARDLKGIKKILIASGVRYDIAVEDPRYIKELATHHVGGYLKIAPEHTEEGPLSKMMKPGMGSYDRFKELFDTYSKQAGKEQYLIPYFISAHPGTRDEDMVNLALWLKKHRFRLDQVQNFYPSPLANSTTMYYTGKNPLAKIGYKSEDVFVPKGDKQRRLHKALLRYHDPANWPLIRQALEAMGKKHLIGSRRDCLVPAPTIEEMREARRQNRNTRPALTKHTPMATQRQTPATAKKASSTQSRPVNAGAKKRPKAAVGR
UniProt Q47622: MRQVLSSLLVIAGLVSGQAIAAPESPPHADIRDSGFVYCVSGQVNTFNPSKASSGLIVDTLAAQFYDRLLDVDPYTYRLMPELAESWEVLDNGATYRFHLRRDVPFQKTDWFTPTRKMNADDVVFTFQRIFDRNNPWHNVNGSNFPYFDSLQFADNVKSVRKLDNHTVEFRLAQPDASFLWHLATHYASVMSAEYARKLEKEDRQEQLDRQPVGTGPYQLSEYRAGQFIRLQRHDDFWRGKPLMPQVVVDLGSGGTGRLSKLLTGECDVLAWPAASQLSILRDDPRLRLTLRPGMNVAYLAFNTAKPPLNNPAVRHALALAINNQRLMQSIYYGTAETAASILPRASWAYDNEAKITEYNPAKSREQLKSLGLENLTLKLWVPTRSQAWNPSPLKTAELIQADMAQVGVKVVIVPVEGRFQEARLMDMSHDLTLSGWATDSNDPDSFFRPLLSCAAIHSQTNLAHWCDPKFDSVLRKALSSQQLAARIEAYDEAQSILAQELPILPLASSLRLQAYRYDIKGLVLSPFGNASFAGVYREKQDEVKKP
UniProt P78067: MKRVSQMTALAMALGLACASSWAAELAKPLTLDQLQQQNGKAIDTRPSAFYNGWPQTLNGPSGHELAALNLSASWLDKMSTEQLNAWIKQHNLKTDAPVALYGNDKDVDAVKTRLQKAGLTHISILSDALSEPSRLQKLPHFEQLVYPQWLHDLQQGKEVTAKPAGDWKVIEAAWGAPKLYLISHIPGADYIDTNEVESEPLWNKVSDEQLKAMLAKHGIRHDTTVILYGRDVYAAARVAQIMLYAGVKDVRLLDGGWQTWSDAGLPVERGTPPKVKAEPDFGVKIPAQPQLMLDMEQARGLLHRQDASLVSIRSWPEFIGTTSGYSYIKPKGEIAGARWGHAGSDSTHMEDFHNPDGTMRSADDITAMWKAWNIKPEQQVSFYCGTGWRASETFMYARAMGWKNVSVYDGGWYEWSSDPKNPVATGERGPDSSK
UniProt Q2M7M3: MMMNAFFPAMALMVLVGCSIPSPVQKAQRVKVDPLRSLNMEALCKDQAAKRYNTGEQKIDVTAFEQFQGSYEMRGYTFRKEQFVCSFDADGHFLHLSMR
UniProt Q46835: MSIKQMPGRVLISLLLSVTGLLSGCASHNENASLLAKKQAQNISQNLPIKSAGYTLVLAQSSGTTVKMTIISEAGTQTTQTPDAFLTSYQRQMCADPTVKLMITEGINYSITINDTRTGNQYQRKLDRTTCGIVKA

The other results are listed elsewhere or left out. Most entries show no effect beyond the scatter of the controls.

Compound in this assay: CC1(C)S[C@@H]2[C@H](NC(=O)[C@H](N)c3ccccc3)C(=O)N2[C@H]1C(=O)O [ampicillin]
Kind of assay: log2 fold change of tryptic peptide abundance, ligand vs vehicle (limited proteolysis) (log2 ratio); higher = more trypsin-susceptible (destabilized). To be noted: ligand concentration: 10 uM; sample: E. coli crude lysate.
As to “UniProt P77748 (peptide sequence: DHLVATVESYAPLMAR, peptide start residue: 710)”, the log2 fold change amounted to 0.677.

On to “UniProt P77791 (peptide sequence: MIAGELYR, peptide start residue: 8)”, for which the log2 fold change is -0.166.

Regarding “UniProt Q46809 (peptide sequence: VSTENVHR, peptide start residue: 160)”, the log2 fold change was -0.117.

As for “UniProt Q46801 (peptide sequence: LSHVQQAYAK, peptide start residue: 88)”, the log2 fold change was -0.143.

Consider “UniProt Q46897 (peptide sequence: DFLFHVEK, peptide start residue: 36)”, for which the log2 fold change came to 0.271.

On to “UniProt Q46807 (peptide sequence: EALITVLSK, peptide start residue: 287)”, for which the log2 fold change turned out to be 0.366.

On to “UniProt Q46861 (peptide sequence: ASSTQSRPVNAGAK, peptide start residue: 717)”, for which the log2 fold change was -0.655.

For the target “UniProt Q47622 (peptide sequence: GKPLMPQVVVDLGSGGTGR, peptide start residue: 240)”, the log2 fold change stood at 0.602.

With “UniProt P78067 (peptide sequence: SADDITAMWK, peptide start residue: 362)”, the log2 fold change was -0.276.

On to “UniProt Q2M7M3 (peptide sequence: SLNMEALCKDQAAKR, peptide start residue: 37)”, for which the log2 fold change amounted to 0.188.

Take “UniProt Q46835 (peptide sequence: QMCADPTVK, peptide start residue: 92)”: the log2 fold change worked out at 0.0595.
